From PubChem BioAssay AID1347076 (National Center for Advancing Translational Sciences (NCATS), 2019)
Screen size: about 400,000 compounds; about 13,000 (3.2%) were called active. This list was built around the results that the source calls inconclusive (neither active nor inactive); the mix of calls is not that of the screen. The call rests on the fitted dose curve; in most records, active means well fitted cell-killing curve with a large enough effect; inconclusive means small, poorly fitted or top-dose-only effect, or effect the other way; inactive means flat fitted curve, though single readings scatter. A potency beside an inconclusive call is a rough fit, not a confirmed value.

experiment: qHTS assay for MDR1-selective chemotherapeutics: Primary screen using the drug-selected MDR subline cells KB-V1; details: KB-V1 MDR cells viability, CellTiter-Glo, 72 h; activity change, negative = cytotoxicity: at 46.1 µM (top of the series); further: nearly all actives have a fitted effect of over 60% in size
Method in brief: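 Cytotoxicity via CellTiter-Glo luminescence after 72 h compound exposure at 37 degrees C. Cells: drug-selected KB-V1 line, DMEM phenol-red free plus 10% FBS. Compounds tested at multiple concentrations; normalized data fitted to concentration-effect curves.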
On the % scale 0 is the no-effect control and ±100 the full control effect; potency means the concentration at half of the fitted maximal effect.

Row | Compound | Potency | activity change, negative = cytotoxicity
1 | CCc1ccc(NS(=O)(=O)c2[nH]ncc2C(=O)OC)cc1 | inconclusive: 29.1 µM [rising, single point] | 
2 | CCN1C(=O)[C@H]2[C@@H](c3ccc(-c4cc(C(C)=O)cs4)cc3)N3CCCC[C@@]3(C(=O)OC)[C@H]2C1=O | inconclusive: 18.4 µM [cytotoxic, partial curve, poor fit] | 
3 | O=C(NCC(c1cccs1)N1CCOCC1)c1cccc(S(=O)(=O)Nc2ccc(F)cc2)c1 (stereo not drawn) | inconclusive: 18.4 µM [cytotoxic, single point] | 
4 | O=C(CCc1nnc2n(Cc3ccccc3)c(=O)c3ccccc3n12)NCCCN1CCCCC1 | inconclusive: 20.6 µM [rising, single point] | 
5 | Cc1ccc(S(=O)(=O)N(C)C[C@H]2Oc3cc(Br)ccc3S(=O)(=O)N([C@H](C)CO)C[C@@H]2C)cc1 |  | inconclusive: 31.9%
6 | Cc1cc(NC(=O)CS(=O)(=O)c2cn(Cc3cccc(F)c3)c3ccccc23)no1 | inconclusive: 0.0052 µM [cytotoxic, full curve, poor fit] | 
7 | C=CCOc1ccc(/C=C2\SC(N3CCCCC3)=NC2=O)cc1 | inconclusive: 18.4 µM [cytotoxic, single point] | 
8 | CCOC(=O)c1ccc(NC(=O)CCc2nc(-c3ccccc3)no2)cc1 | inconclusive: 18.4 µM [cytotoxic, single point] | 
9 | CCN(CC)S(=O)(=O)c1ccc(OC)nc1 | inactive | 
10 | Cc1ccccc1NC(=O)c1sc2nc3c(cc2c1N)CN(Cc1ccccc1)CC3 | inactive | 
11 | CCCS(=O)(=O)N1CCC(C(=O)NCCOC)CC1 | inconclusive: 23.1 µM [cytotoxic, single point] | 
12 | CCOC(=O)Nc1sc2nc(C)cc(C)c2c1-n1cccc1 | active: 18.4 µM | 
13 | COc1ccc(CCC(=O)Nc2cc([N+](=O)[O-])ccc2OC)cc1 | active: 20.6 µM | 
14 | Cc1ccc(NC(=O)c2ccc(S(=O)(=O)NCc3ccco3)cc2)nc1 | inconclusive: 29.1 µM [cytotoxic, single point] | 
15 | COc1cccc(N2CCN(C(=O)CN3CCSc4ccccc43)CC2)c1 | inconclusive: 16.4 µM [cytotoxic, single point] | 
16 | Cc1[nH]c2ccccc2c1C(=O)CN1C(=O)NC(C)(c2ccc(Cl)cc2Cl)C1=O (stereo not drawn) | inconclusive: 13 µM [cytotoxic, partial curve, poor fit] | 
17 | Fc1cccc(F)c1-n1c(CN2CCCCC2)csc1=S | inconclusive: 23.1 µM [cytotoxic, single point] | 
18 | Cc1cc(NC(=O)CSc2nc3ccccc3n2CC(=O)N2CCCCC2)no1 | inconclusive: 16.4 µM [cytotoxic, single point] | 

Taken from above.
Potency with `O=C(CCc1nnc2n(Cc3ccccc3)c(=O)c3ccccc3n12)NCCCN1CCCCC1` reads inconclusive: 20.6 µM [rising, single point]
Potency with `COc1ccc(CCC(=O)Nc2cc([N+](=O)[O-])ccc2OC)cc1` reads active: 20.6 µM
